These are yes or no findings as the source states them, for the method shown. Binding seen in cells or lysates may run through a third protein. Some results given as binding are weak or reduced against the parent protein; the word gives no strength. Sequences can lack the tags named with a protein.

Protein sequences, listed by entry. Tags and fused reporters are not part of them.
UniProt Q13153: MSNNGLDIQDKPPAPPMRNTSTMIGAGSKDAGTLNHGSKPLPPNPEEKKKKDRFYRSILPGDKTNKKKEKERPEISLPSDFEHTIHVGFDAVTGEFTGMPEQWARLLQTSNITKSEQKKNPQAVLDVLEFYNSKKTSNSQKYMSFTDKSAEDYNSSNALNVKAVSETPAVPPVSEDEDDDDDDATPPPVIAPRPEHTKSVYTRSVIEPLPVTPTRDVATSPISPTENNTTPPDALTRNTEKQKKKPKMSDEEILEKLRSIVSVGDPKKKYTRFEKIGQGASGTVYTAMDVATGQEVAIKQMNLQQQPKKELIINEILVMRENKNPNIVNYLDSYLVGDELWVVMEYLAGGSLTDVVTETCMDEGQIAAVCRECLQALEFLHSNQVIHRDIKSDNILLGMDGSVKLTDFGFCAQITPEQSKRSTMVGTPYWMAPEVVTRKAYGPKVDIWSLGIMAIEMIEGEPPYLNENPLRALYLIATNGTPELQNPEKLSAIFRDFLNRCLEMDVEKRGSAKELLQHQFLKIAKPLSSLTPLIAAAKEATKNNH

This is an account of results in article PMC2275482.

The target in the test is T1, Flag-tagged Ebp1 (ErbB3 binding protein; CMV10-Ebp1 p52) (UniProt Q9UQ80).
T1 sequence: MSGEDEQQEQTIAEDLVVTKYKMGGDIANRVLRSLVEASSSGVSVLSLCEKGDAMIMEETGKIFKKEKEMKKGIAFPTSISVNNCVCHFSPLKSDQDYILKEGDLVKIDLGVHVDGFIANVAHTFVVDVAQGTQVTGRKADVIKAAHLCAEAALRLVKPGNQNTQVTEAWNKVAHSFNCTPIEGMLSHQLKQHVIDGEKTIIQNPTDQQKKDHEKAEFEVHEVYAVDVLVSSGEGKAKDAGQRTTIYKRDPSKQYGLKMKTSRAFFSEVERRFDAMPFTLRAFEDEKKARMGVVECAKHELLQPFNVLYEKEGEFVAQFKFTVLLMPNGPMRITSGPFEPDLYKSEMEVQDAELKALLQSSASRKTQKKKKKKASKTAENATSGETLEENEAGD
The experiment in a line: co-IP; Flag-Ebp1 immunoprecipitated from MCF-7 cell lysates with anti-Flag M2 agarose beads and blotted for PAK1 and Flag-Ebp1; cells untreated or treated with HRG 20 ng/ml for 10 min.

As to “PAK1 (wild type), from the CMV6M-PAK1 expression vector (from UniProt Q13153 1-545) (enzyme)”, the binding entry was “binds”.
The entry for “PAK1, endogenous in MCF-7 cells (from UniProt Q13153 1-545) (enzyme)” is “binds”.
